Structures can show the parent of a compound that is named as a salt. The list shows a part of the results. Hit calls seldom repeat between salt and free forms of one compound.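 Kinases were expressed as nanoluciferase fusions in K562 cells and luminescence was read every 4 h between 2 and 18 h as percent of control, DMSO set to 100% and a positive control to 0%. A time point counts as decreased when the signal drops significantly (2 sigma). The hit call is the authors' own, does not follow from the count of time points alone, and its rule is not shown.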
biological target: EGFR_G719S (UniProt P00533); assay: kinase-Nluc reporter destabilization hit call (1 = scored as downregulated) (binary); higher = compound decreases kinase abundance; settings: 2.5 µM; K562; 2-18 h

kinase-Nluc reporter destabilization hit call, inactive:
C=CC(=O)N1CCC[C@@H](n2nc(-c3ccc(Oc4ccccc4)cc3)c3c(N)ncnc32)C1 [Ibrutinib] 0, Cc1cn(-c2cc(NC(=O)c3ccc(C)c(Nc4nccc(-c5cccnc5)n4)c3)cc(C(F)(F)F)c2)cn1 [Nilotinib] 0, Cc1cc(C)n2c1C=C1C=CC(CCC(=O)NCCN3CCN(C/C=C/C(=O)N4CCCC(n5nc(-c6ccc(Oc7ccccc7)cc6)c6c(N)ncnc65)C4)CC3)=[N+]1[B-]2(F)F (stereo not given) 0, Cc1cnc(Nc2ccc(OCCN3CCCC3)cc2)nc1Nc1cccc(S(=O)(=O)NC(C)(C)C)c1 [Fedratinib (hydrochloride hydrate)] 0, O=C(Nc1cccc(Nc2nccc(Nc3cccc(C(F)(F)F)c3)n2)c1)C1CC1 [Aurora kinase inhibitor-3] 0, COc1ccc(-c2cc3nccn3c(Nc3ncccc3C(N)=O)n2)cc1OC [BAY 61-3606 (dihydrochloride)] 0, Nc1nc(Nc2ccc(S(N)(=O)=O)cc2)nn1C(=O)c1c(F)cccc1F 0, COc1cc(N2CCC(N3CCN(C)CC3)CC2)ccc1Nc1ncc(Cl)c(Nc2ccccc2S(=O)(=O)C(C)C)n1 0, COc1cc(Nc2c(C#N)cnc3cc(OCCCN4CCN(C)CC4)c(OC)cc23)c(Cl)cc1Cl [Bosutinib] 0, CCc1cc2c(cc1-c1cnn(CC(=O)N(C)C)c1)C(C)(C)c1[nH]c3cc(C#N)ccc3c1C2=O 0, Cc1cnc(Nc2ccc(OCCN3CCCC3)cc2)nc1Nc1cccc(S(=O)(=O)NC(C)(C)C)c1 [Fedratinib] 0

same assay, conditions: 10 µM; K562; 2-18 h

kinase-Nluc reporter destabilization hit call, inactive:
C=CC(=O)N1CCC([C@@H]2CCNc3c(C(N)=O)c(-c4ccc(Oc5ccccc5)cc4)nn32)CC1 [Zanubrutinib] 0, CCn1c(=O)c(-c2cc(NC(=O)Nc3ccccc3)c(F)cc2Br)cc2cnc(NC)cc21 [Ripretinib] 0, COc1cc(N2CCN(C)CC2)ccc1Nc1nccc(-c2cn(C)c3cnccc23)n1 0, Fc1ccc(-c2nc(-c3ccc4ccccc4c3F)[nH]c2-c2ccncc2)cc1 0, C=CC(=O)N(C)CCOc1c(N)ncnc1-c1cc(F)cc(NC(=O)c2ccc(C3CC3)cc2F)c1C [Remibrutinib] 0, NCCNc1ncc(C(N)=O)c(Nc2cccc(C(F)(F)F)c2)n1 [Syk Inhibitor II] 0, C[C@@H]1O[C@@H](Oc2c(-c3ccc(O)c(O)c3)oc3cc(O)cc(O)c3c2=O)[C@H](O)[C@H](O)[C@H]1O [Quercitrin] 0, CCCOc1ccc(C=C2SC(=O)NC2=O)cc1 0, Cc1cc2c(F)c(Oc3ncnn4cc(OC[C@@H](C)O)c(C)c34)ccc2[nH]1 [Brivanib] 0, CC(C)[C@@](C)(O)[C@@H]1CN(c2nc(-c3[nH]nc4ncccc34)c(F)cc2Cl)CCN1 0, CCCCCCCCCCCCc1ccc(S(=O)(=O)Nc2nncs2)cc1 0, CC#CC(=O)N1CCC[C@H]1c1nc(-c2ccc(C(=O)Nc3ccccn3)cc2)c2c(N)nccn12 [Acalabrutinib] 0, CC(C)N(CCC(=O)c1ccc2ccccc2c1)Cc1ccccc1 0, C=CC(=O)N1C[C@@H](Nc2ncnc3[nH]ccc23)CC[C@H]1C [(2R,5S)-Ritlecitinib] 0, COc1ccc(-c2cc(C(=O)NN=C(C)c3ccc(OC)c(OC)c3)[nH]n2)cc1 0, Cc1ccc2c(=O)c3cccc(CC(=O)O)c3oc2c1C [Vadimezan] 0, C[C@@H]1CN(C(=O)Nc2ccc(-c3nc(N4CCOCC4)c4cnn(CCCCCCC(=O)NO)c4n3)cc2)CCO1 [HDACs/mTOR Inhibitor 1] 0, C[C@H]1CN(C2COC2)CCN1c1ccc(Nc2cc(-c3ccnc(N4CCn5c(cc6c5CC(C)(C)C6)C4=O)c3CO)cn(C)c2=O)nc1 [Fenebrutinib] 0, Nc1ncccc1-c1nc2ccc(-c3ccccc3)nc2n1-c1ccc(C2(N)CCC2)cc1 [Miransertib] 0, O=c1ncn2nc(Sc3ccc(F)cc3F)ccc2c1-c1c(Cl)cccc1Cl [Neflamapimod] 0, CCCCCC1CC1CC1CC1CCCCCCCC(=O)OC (stereo not given) 0, NC1(C(=O)N[C@@H](CCO)c2ccc(Cl)cc2)CCN(c2nc[nH]c3nccc2-3)CC1 [Capivasertib] 0, Cc1ccc(O)cc1Nc1ccnc(Nc2cccc(C(N)=O)c2)n1 [Lck inhibitor 2] 0

biological target: EGFR_G719S_T790M (UniProt P00533); assay: as above; settings: 2.5 µM; K562; 2-18 h

kinase-Nluc reporter destabilization hit call, inactive:
C=CC(=O)N1CCC[C@@H](n2nc(-c3ccc(Oc4ccccc4)cc3)c3c(N)ncnc32)C1 [Ibrutinib] 0, Cc1cn(-c2cc(NC(=O)c3ccc(C)c(Nc4nccc(-c5cccnc5)n4)c3)cc(C(F)(F)F)c2)cn1 [Nilotinib] 0, Cc1cc(C)n2c1C=C1C=CC(CCC(=O)NCCN3CCN(C/C=C/C(=O)N4CCCC(n5nc(-c6ccc(Oc7ccccc7)cc6)c6c(N)ncnc65)C4)CC3)=[N+]1[B-]2(F)F (stereo not given) 0, Cc1cnc(Nc2ccc(OCCN3CCCC3)cc2)nc1Nc1cccc(S(=O)(=O)NC(C)(C)C)c1 [Fedratinib (hydrochloride hydrate)] 0, O=C(Nc1cccc(Nc2nccc(Nc3cccc(C(F)(F)F)c3)n2)c1)C1CC1 [Aurora kinase inhibitor-3] 0, COc1ccc(-c2cc3nccn3c(Nc3ncccc3C(N)=O)n2)cc1OC [BAY 61-3606 (dihydrochloride)] 0, Nc1nc(Nc2ccc(S(N)(=O)=O)cc2)nn1C(=O)c1c(F)cccc1F 0, COc1cc(N2CCC(N3CCN(C)CC3)CC2)ccc1Nc1ncc(Cl)c(Nc2ccccc2S(=O)(=O)C(C)C)n1 0, COc1cc(Nc2c(C#N)cnc3cc(OCCCN4CCN(C)CC4)c(OC)cc23)c(Cl)cc1Cl [Bosutinib] 0, CCc1cc2c(cc1-c1cnn(CC(=O)N(C)C)c1)C(C)(C)c1[nH]c3cc(C#N)ccc3c1C2=O 0, Cc1cnc(Nc2ccc(OCCN3CCCC3)cc2)nc1Nc1cccc(S(=O)(=O)NC(C)(C)C)c1 [Fedratinib] 0

Reference: the supplement of paper PMC12823440, “Inhibitors supercharge kinase turnover through native proteolytic circuits” (Nature, 2025)
